{"source": "paper PMC9464229", "binders": {"B1": {"name": "P130cas (endogenous) (protein, UniProt P56945 1-870)", "chain": "MNHLNVLAKALYDNVAESPDELSFRKGDIMTVLEQDTQGLDGWWLCSLHGRQGIVPGNRLKILVGMYDKKPAGPGPGPPATPAQPQPGLHAPAPPASQYTPMLPNTYQPQPDSVYLVPTPSKAQQGLYQVPGPSPQFQSPPAKQTSTFSKQTPHHPFPSPATDLYQVPPGPGGPAQDIYQVPPSAGMGHDIYQVPPSMDTRSWEGTKPPAKVVVPTRVGQGYVYEAAQPEQDEYDIPRHLLAPGPQDIYDVPPVRGLLPSQYGQEVYDTPPMAVKGPNGRDPLLEVYDVPPSVEKGLPPSNHHAVYDVPPSVSKDVPDGPLLREETYDVPPAFAKAKPFDPARTPLVLAAPPPDSPPAEDVYDVPPPAPDLYDVPPGLRRPGPGTLYDVPRERVLPPEVADGGVVDSGVYAVPPPAEREAPAEGKRLSASSTGSTRSSQSASSLEVAGPGREPLELEVAVEALARLQQGVSATVAHLLDLAGSAGATGSWRSPSEPQEPLVQDLQAAVAAVQSAVHELLEFARSAVGNAAHTSDRALHAKLSRQLQKMEDVHQTLVAHGQALDAGRGGSGATLEDLDRLVACSRAVPEDAKQLASFLHGNASLLFRRTKATAPGPEGGGTLHPNPTDKTSSIQSRPLPSPPKFTSQDSPDGQYENSEGGWMEDYDYVHLQGKEEFEKTQKELLEKGSITRQGKSQLELQQLKQFERLEQEVSRPIDHDLANWTPAQPLAPGRTGGLGPSDRQLLLFYLEQCEANLTTLTNAVDAFFTAVATNQPPKIFVAHSKFVILSAHKLVFIGDTLSRQAKAADVRSQVTHYSNLLCDLLRGIVATTKAAALQYPSPSAAQDMVERVKELGHSTQQFRRVLGQLAAA"}}, "target": "Flag-YAP-ΔWW", "assay": "co-IP; tagged bait immunoprecipitated by Flag or Myc antibody from A549 cells infected with lentivirus or transfected with wild type or mutant, immunoblotted for the partners (Fig. 5D-F, Supplementary Fig. 6A)", "note": "No constants are given. Whether binding was seen depends on the method and setting. In cells and extracts the contact can be indirect. Binding can be weak; no strength is given."}
{"binder": "B1", "values": [{"measurement": "binding", "result": "binds"}]}
